The results in this text go back to patent US20250295610A1, “NEUROPROTECTIVE AGENTS FOR USE IN THE TREATMENT OF OPTIC NEUROPATHIES” (The Board of Trustees of the Leland Stanford Junior …, priority 2021, published 2025).

SMILES strings stand for the structures.

This experiment concerns CHOP promoter-driven luciferase (CHOP-Luc) in HEK293T cells. The experiment is described as follows: CHOP-Luc reporter cell-based assay (HTS and retest). Further details: species or system human. The following applies: Tm/Tg 1 μM, 24 hours. The protocol: ER stress reporter cell lines.
Cell-based HTS. The HTS to identify CHOP expression inhibitors was performed at the Stanford High-Throughput Bioscience Center with small molecule libraries containing 4846 total known bioactive, FDA approved drugs and clinical trial compounds; libraries included Biomol FDA, Biomol ICCB, Microsource (MS) Spectrum, Sigma LOPAC, and NIH Clinical Collection (NIH-CC). All the compounds were run in 7-point dose response based on a previous publication; except the NIH Clinical collection (446 compounds) which were tested in duplicate due to the small quantity of compounds on hand. Most of the NIH-CC was screened at 10 µM, but this varied per compound. The Z′ of the assay was 0.5, details on instrumentation can be found here: https://med.stanford.edu/htbc/equipment/liquid.html. We used the Pin Tool to transfer 100 nL of the compounds into 50 μL final volume. […] AeraSeal sterile adhesive microplate seals (Excel Scientific; Victorville, CA) were used to seal plates that were incubated at 5% CO2, 37° C. for 24 hours, when luciferase activity was assayed by adding 10 μL of Bright™-Glo Luciferase reagent (Promega) to each well and detected by a Tecan Infinite M1000 Pro plate reader. […] Luciferase activity of all the tested compounds was determined by meta-analysis of luciferase activity in different cell lines under the control of a generic or other promoters. […]

Regarding `Clc1ccc2c(c1)CCc1cccnc1C2=C1CCNCC1` [desloratadine], for the setting “compound at 10 µM, relative to DMSO (FIG. 1d)”, the “CHOP-luciferase activity induced by ER stress (Tm/Tg)” value is given as “significantly inhibited”.

With `CNCCCC12CCC(c3ccccc31)c1ccccc12` [maprotiline], the “IC50 of CHOP-Luc activity” value (compared among the three hit compounds) was “the lowest IC50”.
